Reference: PMC3765907
For at least one entry, the source does not settle the construct or the ends of the probe. The direction of at least one scale is not stated here.

The chains behind the UniProt entries cited, without tags or fusion partners. Where a name states a change or a piece, a line headed by the entry shows the natural chain unless it says otherwise.
UniProt O60260: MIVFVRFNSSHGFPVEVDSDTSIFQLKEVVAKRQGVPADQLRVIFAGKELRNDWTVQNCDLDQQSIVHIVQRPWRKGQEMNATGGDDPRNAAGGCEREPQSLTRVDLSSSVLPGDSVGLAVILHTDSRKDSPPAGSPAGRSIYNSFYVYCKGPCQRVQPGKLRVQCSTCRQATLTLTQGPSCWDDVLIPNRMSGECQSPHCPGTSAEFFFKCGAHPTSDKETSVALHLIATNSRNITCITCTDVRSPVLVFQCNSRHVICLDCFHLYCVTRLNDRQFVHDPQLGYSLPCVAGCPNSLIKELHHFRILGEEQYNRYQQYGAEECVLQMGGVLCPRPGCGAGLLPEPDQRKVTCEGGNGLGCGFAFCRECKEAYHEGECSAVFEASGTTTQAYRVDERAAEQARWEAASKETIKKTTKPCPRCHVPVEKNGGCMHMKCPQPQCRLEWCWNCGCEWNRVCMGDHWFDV

Biological target: S-nitrosylated parkin (SNO-parkin, GST-tagged) (UniProt O60260)
Test: EMSA
Conditions: parkin pre-incubated 10 min with 200 uM fresh SNOC, p<0.01, n=4, text does not say whether 47% is remaining or lost; 1x binding buffer (Panomics), room temperature, 20 min; 0.1 nM biotin probe, 1 uM parkin (100 nM-1 uM titration); 6% PAGE in 0.5x TBE pH 8.3; salt not stated; recombinant protein; protein details: GST; label: 5' biotin

GGCACCAGGTCGGCGAGAATCCTGACTCTGCACCCTCCTCCCCAACTCCATTTCCTTTGCTTCCTCCGGC (double strand) [Pp53 (human p53 promoter probe)]
binding signal (% relative to old SNOC): 47
